This assay can be described thus: Acetic Acid-Writhing Test according to Koster et al., analgetic activity, per os. Format: in vivo, white mouse (NMRI-Mouse). The note with it: Mus musculus, po, 0.5 h, substance alone, 30 minutes after giving, linear regression. The protocol: These investigations were carried out in the Acetic Acid Test (Writhing Test) on the white mouse.
Writhing According to Koster et al; Fed.
(§1) Animal: White Mouse (NMRI-Mouse); Application: per os
Writhing Test According to Koster et al.: Fed.
as §1
The pain reaction is expressed as a characteristic stretching of the animals ("writhing syndrome") which persists in irregular time intervals for a long period of time after the injection of the acetic acid. The dosage dependent suppression of the frequency of the stretching motion compared to an untreated control group is expressed in percent as analgetic effect. The evaluation is carried out by determination of the ED50 (Method of Linear Regression).
The acetic acid test is marked by the fact that not only is there detectable the effect of strong, central acting analgetics but also preponderantly peripherally acting analgetics-antipyretics and antiphlogistically active pharmaceuticals such as phenyl butazone, Indometacin and others. Therewith the effect in this procedure refers to a peripheral component of the analgesic.
On the technique in general: Writhing tests count abdominal constrictions after an irritant is injected.

On to `COc1ccc2cc([C@H](C)C(=O)O)ccc2c1` [Naproxen], for which the ED50 (in general, the dose that gives a 50% effect, or the effect in half of the subjects) stood at 2.62 mg/kg.

For the origin of these results see patent US4778799A, “Synergistic combination of flupirtin and non-steroidal antiphlogistic” (priority 1985, dated 1988).
